Our source for the binding values is patent EP4669352A1.

Assay [1] concerns the target D8 protein (vaccinia virus). Nature of the assay: restated from ELISA/BLI.
The target of assay [2] is D8 protein (vaccinia virus). In words: ELISA on recombinant protein. On the technique in general: In an ELISA, binding on a coated surface is turned into a signal by an enzyme label.

Results are given in words; binding and its absence hold for the method and conditions named. A result given as binding can be weak or reduced; the word gives no strength.

B1: MV33 (antibody, V domains shown)
VH: EAQLVESGGGLVHPGGSLRLSCEVSGFTFSNSWMNWVRQAPGKGLECVARIIRNADGETADYAASVRGRFTISRDDPENTLYLRMKSLKTEDTAVYYCTTVPPLSHLFFHETYYFDYWGQGVLVTVSS
VL: QAARTQSPSMSASPGQSVTISCTGTRNDIGGYNYVSWYQQYPGKAPKLMIYDVSKRPSGVSDRFSGSKSGNTASLTISGLQAEDEANYYCSSYAGSNTYVFGSGTKLTIL
In the case of B1, the binding result in assay [1] and in assay [2] was “binds” throughout.

B2: MV49 (antibody, V domains shown)
VH: QVQLQESGGGLVQPGGSLRLSCAASGFTFSNSWMNWVRQAPGKGPEWVARIKRKADGETADYAASVKGRFAVSRDDSKNTLYLQINSLKSEDTAVYYCTTVPPLYDLFYRGAYYFDSWGQGVLITVSS
VL: QPVLTQPPSVSGSPGQSVTISCTGTSSDIGGYKYVSWYQQHPGTAPKLMIYEVNKRPSGVSDRFSGSKSGNTASLTISGLQAEDEADYYCSAYSTSRTYIFGPGTRVTVL
Consider B2, for which, in assay [2], the binding result is “binds”.
